PubChem BioAssay AID1224829 – NIAID, 2016

Purpose: 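Secondary check of hits that alter LPS-induced p65 translocation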 (follow-up of hits)
Cells: mouse RAW264.7 G9 macrophage reporter cells
Knock-down reagent: single siRNA against mouse genes, 100 nM
Time to read-out: 2 days of siRNA knock-down, then 40 min of LPS before fixing
Treatment: LPS (Salmonella minnesota R595) at 10 ng/ml
Detection: 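Imaging of GFP-p65 after 40 min of LPS; nuclear over perinuclear ring intensity ratio, scaled to plate median and non-targeting control wells, given as z-score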
Direction: p65 translocation z-score: higher = more nuclear NF-kappaB p65 after LPS
Active means: 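Active means the replicate-mean z-score lies beyond plus or minus 2, in either direction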
Calls: active = changed p65 translocation (either direction); inactive = no clear change
In all, the deposit lists about 3,800 reagents; shown is an unselected part. 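Calls cover raised and lowered translocation; gene median uses one vendor's three siRNAs; qiagen siRNAs acted more weakly than ambion siRNAs.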 Reagents against one gene are numbered here. Further read-outs or replicates are left out here.

Shbg #1, siRNA vendor or control pool ambion single siRNA scored p65 translocation z-score, replicate mean -1.48; p65 translocation z-score, replicate 1 = -1.17; inactive.
For Shbg #2, siRNA vendor or control pool ambion single siRNA, the entry reads p65 translocation z-score, replicate mean -2.85; p65 translocation z-score, replicate 1 = -2.39; active.
Shbg #3, siRNA vendor or control pool ambion single siRNA scored p65 translocation z-score, replicate mean -0.329; p65 translocation z-score, replicate 1 = -0.362; inactive.
For Shbg #4, siRNA vendor or control pool qiagen single siRNA, the values are p65 translocation z-score, replicate mean 0.14; p65 translocation z-score, replicate 1 = -0.982; inactive.
With Shbg #5, siRNA vendor or control pool qiagen single siRNA the deposit lists p65 translocation z-score, replicate mean 0.809; p65 translocation z-score, replicate 1 = 0.599; inactive.
Shbg #6, siRNA vendor or control pool qiagen single siRNA showed p65 translocation z-score, replicate mean -2.32; p65 translocation z-score, replicate 1 = -1.29; active.
Hnrnpa1 #1, siRNA vendor or control pool ambion single siRNA scored p65 translocation z-score, replicate mean -3.18; p65 translocation z-score, replicate 1 = -3.57; active.
Hnrnpa1 #2, siRNA vendor or control pool ambion single siRNA gave p65 translocation z-score, replicate mean 0.641; p65 translocation z-score, replicate 1 = 2.08; inactive.
For Hnrnpa1 #3, siRNA vendor or control pool ambion single siRNA, the entry reads p65 translocation z-score, replicate mean -2.28; p65 translocation z-score, replicate 1 = -2.2; active.
Hnrnpa1 #4, siRNA vendor or control pool qiagen single siRNA showed p65 translocation z-score, replicate mean 0.861; p65 translocation z-score, replicate 1 = -0.169; inactive.
Hnrnpa1 #5, siRNA vendor or control pool qiagen single siRNA showed p65 translocation z-score, replicate mean -0.215; p65 translocation z-score, replicate 1 = -0.417; inactive.
With Hnrnpa1 #6, siRNA vendor or control pool qiagen single siRNA the deposit lists p65 translocation z-score, replicate mean 0.0983; p65 translocation z-score, replicate 1 = -1.2; inactive.

Hits, of those listed so far:
Shbg #2, siRNA vendor or control pool ambion single siRNA → p65 translocation z-score, replicate mean: -2.85; p65 translocation z-score, replicate 1: -2.39; call: active
Shbg #6, siRNA vendor or control pool qiagen single siRNA → p65 translocation z-score, replicate mean: -2.32; p65 translocation z-score, replicate 1: -1.29; call: active
Hnrnpa1 #1, siRNA vendor or control pool ambion single siRNA → p65 translocation z-score, replicate mean: -3.18; p65 translocation z-score, replicate 1: -3.57; call: active
Hnrnpa1 #3, siRNA vendor or control pool ambion single siRNA → p65 translocation z-score, replicate mean: -2.28; p65 translocation z-score, replicate 1: -2.2; call: active

Next reagents follow:
Fam168b #1, siRNA vendor or control pool ambion single siRNA scored p65 translocation z-score, replicate mean -3.11; p65 translocation z-score, replicate 1 = -2.46; active.
With Fam168b #2, siRNA vendor or control pool ambion single siRNA, the values are p65 translocation z-score, replicate mean -0.278; p65 translocation z-score, replicate 1 = -0.278; inactive.
Fam168b #3, siRNA vendor or control pool ambion single siRNA scored p65 translocation z-score, replicate mean -4.14; p65 translocation z-score, replicate 1 = -3.63; active.
Slc51a #1, siRNA vendor or control pool ambion single siRNA scored p65 translocation z-score, replicate mean -2.56; p65 translocation z-score, replicate 1 = -3.93; active.
Slc51a #2, siRNA vendor or control pool ambion single siRNA gave p65 translocation z-score, replicate mean -0.978; p65 translocation z-score, replicate 1 = -1.25; inactive.
For Slc51a #3, siRNA vendor or control pool ambion single siRNA the deposit lists p65 translocation z-score, replicate mean 0.29; p65 translocation z-score, replicate 1 = -0.224; inactive.
With Slc51a #4, siRNA vendor or control pool qiagen single siRNA the deposit lists p65 translocation z-score, replicate mean 0.914; p65 translocation z-score, replicate 1 = 0.764; inactive.
Slc51a #5, siRNA vendor or control pool qiagen single siRNA scored p65 translocation z-score, replicate mean 1.12; p65 translocation z-score, replicate 1 = 1.23; inactive.
Slc51a #6, siRNA vendor or control pool qiagen single siRNA showed p65 translocation z-score, replicate mean 2.5; p65 translocation z-score, replicate 1 = 0.884; active.
With Cebpd #1, siRNA vendor or control pool ambion single siRNA, the entry reads p65 translocation z-score, replicate mean -1.91; p65 translocation z-score, replicate 1 = -2.01; inactive.
Cebpd #2, siRNA vendor or control pool ambion single siRNA scored p65 translocation z-score, replicate mean 0.871; p65 translocation z-score, replicate 1 = 0.124; inactive.
Cebpd #3, siRNA vendor or control pool ambion single siRNA showed p65 translocation z-score, replicate mean -2.04; p65 translocation z-score, replicate 1 = -2.52; active.
Cebpd #4, siRNA vendor or control pool qiagen single siRNA scored p65 translocation z-score, replicate mean 0.29; p65 translocation z-score, replicate 1 = -0.568; inactive.
Cebpd #5, siRNA vendor or control pool qiagen single siRNA scored p65 translocation z-score, replicate mean -1.42; p65 translocation z-score, replicate 1 = -0.424; inactive.
Cebpd #6, siRNA vendor or control pool qiagen single siRNA gave p65 translocation z-score, replicate mean -1.52; p65 translocation z-score, replicate 1 = -1.52; inactive.
With Psma3 #1, siRNA vendor or control pool ambion single siRNA, the values are p65 translocation z-score, replicate mean 2.78; p65 translocation z-score, replicate 1 = 3.78; active.
With Psma3 #2, siRNA vendor or control pool ambion single siRNA, the values are p65 translocation z-score, replicate mean -1.78; p65 translocation z-score, replicate 1 = -3.23; inactive.
For Psma3 #3, siRNA vendor or control pool ambion single siRNA, the values are p65 translocation z-score, replicate mean -4.05; p65 translocation z-score, replicate 1 = -4.7; active.
